The record followed here is patent US20240327522A1 (Genentech, published 2024).

Protein sequences, listed by entry. Tags and fused reporters are not part of them. Lines headed by an entry give the natural chain unless they say otherwise; changes in a name come on top.
UniProt P43406: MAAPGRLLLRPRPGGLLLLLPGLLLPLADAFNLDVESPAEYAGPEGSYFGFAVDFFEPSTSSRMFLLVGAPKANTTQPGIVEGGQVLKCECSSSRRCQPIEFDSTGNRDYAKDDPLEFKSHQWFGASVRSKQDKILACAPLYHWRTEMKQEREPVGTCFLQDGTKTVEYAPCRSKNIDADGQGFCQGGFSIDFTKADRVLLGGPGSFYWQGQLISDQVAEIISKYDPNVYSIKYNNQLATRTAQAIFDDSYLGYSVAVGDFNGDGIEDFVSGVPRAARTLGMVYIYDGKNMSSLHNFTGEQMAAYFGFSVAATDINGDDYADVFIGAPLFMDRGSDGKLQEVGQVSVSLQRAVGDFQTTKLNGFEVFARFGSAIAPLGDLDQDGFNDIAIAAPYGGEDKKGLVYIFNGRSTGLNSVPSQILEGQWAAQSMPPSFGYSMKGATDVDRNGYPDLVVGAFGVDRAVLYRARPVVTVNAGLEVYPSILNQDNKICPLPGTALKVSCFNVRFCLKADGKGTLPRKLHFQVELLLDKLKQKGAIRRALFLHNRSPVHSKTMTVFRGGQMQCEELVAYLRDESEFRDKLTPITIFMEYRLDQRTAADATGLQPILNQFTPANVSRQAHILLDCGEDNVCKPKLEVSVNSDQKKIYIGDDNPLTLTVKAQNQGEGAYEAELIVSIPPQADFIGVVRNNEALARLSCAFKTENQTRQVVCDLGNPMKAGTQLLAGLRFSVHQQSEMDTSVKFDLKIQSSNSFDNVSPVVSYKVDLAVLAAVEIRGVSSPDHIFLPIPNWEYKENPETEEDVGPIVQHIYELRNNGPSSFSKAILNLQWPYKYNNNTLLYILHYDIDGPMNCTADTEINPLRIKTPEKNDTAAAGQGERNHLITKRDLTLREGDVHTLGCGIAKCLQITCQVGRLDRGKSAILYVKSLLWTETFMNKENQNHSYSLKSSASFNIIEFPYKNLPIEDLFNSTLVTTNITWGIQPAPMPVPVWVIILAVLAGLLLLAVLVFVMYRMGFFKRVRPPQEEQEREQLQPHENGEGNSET
UniProt Q0VBD0: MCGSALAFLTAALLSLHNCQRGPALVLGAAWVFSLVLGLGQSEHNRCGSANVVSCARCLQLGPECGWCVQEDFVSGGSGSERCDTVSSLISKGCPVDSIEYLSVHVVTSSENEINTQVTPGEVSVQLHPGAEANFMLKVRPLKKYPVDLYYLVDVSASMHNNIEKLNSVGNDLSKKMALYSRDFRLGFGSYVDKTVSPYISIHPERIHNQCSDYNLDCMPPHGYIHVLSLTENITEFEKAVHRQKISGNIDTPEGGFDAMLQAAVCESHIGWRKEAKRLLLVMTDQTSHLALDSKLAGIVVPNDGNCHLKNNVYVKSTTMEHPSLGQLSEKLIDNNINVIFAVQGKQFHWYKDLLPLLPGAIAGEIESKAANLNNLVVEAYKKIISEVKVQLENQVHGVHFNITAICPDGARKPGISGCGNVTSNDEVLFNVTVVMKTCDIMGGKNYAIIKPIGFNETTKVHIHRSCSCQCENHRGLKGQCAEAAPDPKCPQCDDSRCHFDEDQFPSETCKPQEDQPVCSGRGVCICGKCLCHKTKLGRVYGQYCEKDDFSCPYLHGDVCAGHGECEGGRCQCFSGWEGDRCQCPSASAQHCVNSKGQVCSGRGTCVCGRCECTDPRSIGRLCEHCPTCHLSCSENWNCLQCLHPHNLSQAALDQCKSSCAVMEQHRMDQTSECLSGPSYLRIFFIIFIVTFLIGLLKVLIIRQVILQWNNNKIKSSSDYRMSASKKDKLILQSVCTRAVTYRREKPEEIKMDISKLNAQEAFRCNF
UniProt P06756: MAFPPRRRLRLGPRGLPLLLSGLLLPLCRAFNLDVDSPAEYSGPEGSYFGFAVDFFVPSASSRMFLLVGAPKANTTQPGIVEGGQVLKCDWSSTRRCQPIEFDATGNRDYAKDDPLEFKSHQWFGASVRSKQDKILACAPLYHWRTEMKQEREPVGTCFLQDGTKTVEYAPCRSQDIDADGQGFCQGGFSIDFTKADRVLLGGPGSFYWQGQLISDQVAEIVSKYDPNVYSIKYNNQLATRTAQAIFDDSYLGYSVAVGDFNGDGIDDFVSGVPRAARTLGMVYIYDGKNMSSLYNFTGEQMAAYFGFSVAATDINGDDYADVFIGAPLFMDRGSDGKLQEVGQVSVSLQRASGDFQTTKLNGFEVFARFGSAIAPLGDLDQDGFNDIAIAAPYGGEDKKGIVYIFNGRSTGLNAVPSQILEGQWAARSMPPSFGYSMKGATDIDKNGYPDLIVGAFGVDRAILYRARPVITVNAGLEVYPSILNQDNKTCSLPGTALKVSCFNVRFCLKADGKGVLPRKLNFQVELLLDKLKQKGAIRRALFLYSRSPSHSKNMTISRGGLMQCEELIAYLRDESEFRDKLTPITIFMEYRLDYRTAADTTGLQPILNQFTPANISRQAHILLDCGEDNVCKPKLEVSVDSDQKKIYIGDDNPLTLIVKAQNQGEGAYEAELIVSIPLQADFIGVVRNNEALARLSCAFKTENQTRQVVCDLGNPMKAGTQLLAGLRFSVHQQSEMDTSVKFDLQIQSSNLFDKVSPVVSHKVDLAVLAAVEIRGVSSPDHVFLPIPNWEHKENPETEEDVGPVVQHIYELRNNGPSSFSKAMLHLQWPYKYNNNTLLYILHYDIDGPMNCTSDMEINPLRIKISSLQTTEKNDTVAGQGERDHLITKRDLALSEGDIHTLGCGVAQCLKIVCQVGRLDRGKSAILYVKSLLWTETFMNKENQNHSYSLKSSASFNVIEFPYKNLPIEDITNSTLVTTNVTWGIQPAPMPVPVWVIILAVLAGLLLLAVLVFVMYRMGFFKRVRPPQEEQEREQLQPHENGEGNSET
UniProt A0A0G2JVU1: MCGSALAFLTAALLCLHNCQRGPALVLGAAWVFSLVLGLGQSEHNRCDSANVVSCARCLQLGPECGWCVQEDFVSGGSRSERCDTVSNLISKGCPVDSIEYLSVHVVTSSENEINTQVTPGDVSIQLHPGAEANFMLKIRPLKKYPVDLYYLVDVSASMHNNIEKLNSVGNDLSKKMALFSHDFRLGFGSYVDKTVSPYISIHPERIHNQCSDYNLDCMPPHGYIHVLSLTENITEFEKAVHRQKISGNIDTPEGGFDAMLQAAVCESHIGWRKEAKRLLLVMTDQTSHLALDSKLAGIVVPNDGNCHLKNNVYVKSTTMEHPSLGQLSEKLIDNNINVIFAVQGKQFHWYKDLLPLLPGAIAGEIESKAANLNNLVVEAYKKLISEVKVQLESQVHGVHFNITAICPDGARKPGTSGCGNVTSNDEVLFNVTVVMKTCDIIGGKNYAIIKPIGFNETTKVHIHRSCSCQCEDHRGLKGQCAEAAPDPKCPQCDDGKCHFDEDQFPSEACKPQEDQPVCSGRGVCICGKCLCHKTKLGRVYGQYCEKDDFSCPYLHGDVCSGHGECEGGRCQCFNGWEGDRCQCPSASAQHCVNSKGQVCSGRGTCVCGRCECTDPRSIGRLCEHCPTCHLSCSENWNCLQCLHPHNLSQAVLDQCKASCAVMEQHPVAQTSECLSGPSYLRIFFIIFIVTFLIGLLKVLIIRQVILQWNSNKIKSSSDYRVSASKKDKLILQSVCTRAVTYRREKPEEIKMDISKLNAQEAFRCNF

No constants are given. Whether binding was seen depends on the method and setting. Some binding calls cover weakened binding; strength is not graded here.

The target in test [1] is T1, recombinant mouse αvβ8 protein (PARS-17103) (murine) (UniProt P43406+Q0VBD0). As to the kind of experiment: SPR. On the technique in general: SPR reads the build-up and loss of mass on a sensor chip optically.
Test [2] deals with recombinant cynomolgus monkey αvβ8 protein (PARS-19393) (cynomolgus monkey). Nature of the test: SPR.
For test [3], the target named is recombinant human αvβ8 (cryo-EM construct) (human) (UniProt P06756). As to the kind of experiment: size exclusion chromatography; cryo-EM.
In test [4] the target is T1, recombinant mouse αvβ8 protein (PARS-17103) (murine). As to the kind of experiment: SPR, Biacore T200, Protein A capture.
Test [5] has as its target recombinant cynomolgus monkey αvβ8 protein (PARS-19393) (cynomolgus monkey). Nature of the test: SPR, Biacore T200, Protein A capture.
Test [6] concerns the target recombinant rat αvβ8 protein (PARS-22180) (rat) (UniProt F1LZX9+A0A0G2JVU1). As to the kind of experiment: SPR, Biacore T200, Protein A capture.

B1: Hu.aVb8-92.H13L1 (aVb8-92.H13L1.hIgG1.LALAPG) (antibody, V domains shown)
VH: EQQLLESGGGLVQPGGSLRLSCAASGFSLSSYAMGWVRQAPGKGLEWIGVIRKDDNTYYGNWAKGRFTISRDSSKNTLYLQMNSLRAEDTAVYFCARALNTYVGFPYFNIWGPGTLVTVSS
VL: DAVLTQSPDSLAVSLGERATINCQSIKSVGDNKWLAWYQQKPGQPPKLLIYDASDLASGVPDRFSGSGSRTDFTLTISSLQAEDVAVYYCAGSVSSGDSGFGGGTKVEIKR
notes: Human IgG1 LALAPG; also called PARS-20463-65 (IH) aVb8-92.H13L1.hIgG1.LALAPG; humanized αvβ8-92
Consider B1, for which the binding result in test [1] and in test [2] was “binds” throughout.

B2: Rb.aVb8-65 (antibody, V domains shown)
VH: QSVEESGGRLVTPGTPLTLTCTVSGIDLSNYAMIWVRQAPGKGLEWIGIISSSDRIWYASWVKGRFTISKTSSTTVDLQMTSLTTEDTATYFCSRSVSNSYFDGWNLWGPGTLVTVSS
VL: DIVMTQTPASVEAAVGGTVTIKCQASENINSLLAWYQQKPGQPPKLLIYRASTLASGVPSRFRGSGSGTQFTLTISDLECDDAATYYCQSNYGFTGSGAFFYGFGGGTEVVVE
notes: Recombinant rabbit monoclonal antibody expressed in Expi293 cells; also called rb.αvβ8-65; rabbit αvβ8-65
Consider B2, for which the binding entry in test [1] is given as “binds”.

B3: FAB 65 (anti-ITGB8.αvβ8-65) (Fab, V domains shown)
VH: B2 VH
VL: B2 VL
Turning to B3, the binding entry in test [3] is reported as “binds”.

B4: Hu.aVb8-65.H15L2 (aVb8-65.H15L2.hIgG1.LALAPG) (antibody, V domains shown)
VH: EVQLLESGGGLVQPGGSLRLSCAASGIDLSNYAMIWVRQAPGKGLEWVGIISSSDRIWYASWVKGRFTISRDNSKNTLYLQMNSLRAEDTAVYYCSRSVSNSYFDGWNLWGQGTLVTVSS
VL: DIQMTQSPSSVSASVGDRVTITCQASENINSLLAWYQQKPGKAPKLLIYRASTLASGVPSRFSGSGSGTDFTLTISSLQPEDFATYYCQSNYGFTGSGAFFYGFGQGTKVEIKR
notes: Human IgG1 LALAPG; also called PARS-20475-65 (IH) aVb8-65.H15L2.hIgG1.LALAPG; humanized αvβ8-65
In the case of B4, the binding result in test [4], in test [5], in test [6], in test [1] and in test [2] was “binds” each time.

B5: Rb.aVb8-92 (antibody, V domains shown)
VH: QSVEESGGRLVTPGTPLTLTCTVSGFSLSSYAMGWVRQAPGKGLEWIGVIRKDDNTYYGNWAKGRFTISRTSTTVDLKMTSLTAADTATYFCARALNTYVGFPYFNIWGPGTLVTVSS
VL: AAVLTQTPSPVSAAVGGTVSISCQSIKSVGDNKWLAWYQQKPGQPPKLLIYDASDLASGVPSRFKGSGSRTQFTLTISDLQCDDAATYYCAGSVSSGDSGFGGGTEVVVA
notes: Recombinant rabbit monoclonal antibody expressed in Expi293 cells; also called rb.αvβ8-92; rabbit αvβ8-92
Consider B5, for which the binding entry in test [1] is on record as “binds”.
